In all, about 33,000 sequences were measured (“E-score (-0.5 to 0.5)”: median about -0.0034, highest 2% from about 0.25 on). This is one part of the list.
What follows are sequences tested against T1, Yap3 (UniProt P38749) (assay: PBM E-score (8-mer binding enrichment) (E-score (-0.5 to 0.5)); higher = stronger / more preferred TF binding). Conditions: protein concentration: 100 nM; construct: GST-full length.
T1 sequence: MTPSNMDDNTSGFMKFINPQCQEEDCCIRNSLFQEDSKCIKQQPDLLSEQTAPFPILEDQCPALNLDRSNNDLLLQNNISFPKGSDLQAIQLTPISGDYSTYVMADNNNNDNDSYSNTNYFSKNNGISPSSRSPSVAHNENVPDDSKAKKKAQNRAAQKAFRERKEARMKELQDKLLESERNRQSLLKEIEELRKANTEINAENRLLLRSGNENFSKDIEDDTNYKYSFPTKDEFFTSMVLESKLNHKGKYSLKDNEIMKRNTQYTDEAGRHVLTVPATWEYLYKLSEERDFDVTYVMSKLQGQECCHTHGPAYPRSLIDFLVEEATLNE
Procedure, shortened: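 Bound GST-tagged yeast transcription factors, applied at about 100-200 nM to double-stranded universal all-10-mer Agilent arrays, were detected with fluorescent anti-GST. Scans were normalised with masliner. A modified Wilcoxon-Mann-Whitney statistic, the E-score, was assigned to each ungapped eight-base word pooled with its reverse complement by the Universal PBM Analysis Suite.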

| Sequence | PBM E-score |
| --- | --- |
| CCTACAAG | -0.195 |
| ATGATAGA | 0.0408 |
| CGACTCTA | -0.101 |
| ACCAAACA | 0.22 |
| CCCTGACC | -0.167 |
| CACCACAG | -0.0737 |
| CCAGAAGA | -0.0758 |
| CCTTTCAA | 0.0643 |
| ACGCGATG | 0.0166 |
| CTCCCGAC | -0.17 |
| AAGGCTTC | -0.00648 |
| GCGCAGAC | -0.123 |
| CACCTATC | 0.0783 |
| TCGGTTCA | -0.121 |
| CTACCGGA | -0.168 |
| GGACAGTA | 0.182 |
| CTGCTTTA | 0.251 |
| CACCTGAA | 0.136 |
| ACAGTAAT | 0.234 |
| TAAAATAA | 0.0792 |
| CGGACTTC | -0.19 |
| GCTCGACC | -0.0732 |
| AACGAGCG | 0.0751 |
| AAGTCGCG | 0.146 |
| ATTCTGCG | 0.0918 |

| Sequence | PBM E-score |
| --- | --- |
| GATGCTCA | -0.109 |
| AATCTGGC | -0.179 |
| GTCGACGA | -0.00621 |
| CCCTGGTA | -0.275 |
| ATCTGTAC | 0.206 |
| CATGAAAC | 0.103 |
| ACGGCGAA | 0.0811 |
| TACGTCCA | -0.0718 |
| GGAGTGGA | -0.0979 |
| CAACCTAA | 0.0685 |
| GAAAGGCA | 0.049 |
| CTGGTGCC | -0.256 |
| CATTAAGG | 0.0235 |
| CGACACCG | -0.143 |
| AGCTATGG | -0.145 |
| AAATAACT | 0.206 |
| ATACCATA | 0.241 |
| CGTTGAGC | -0.0636 |
| ACGCCCGT | 0.115 |
| TGGACGAA | 0.0693 |
| AGACAGCT | -0.154 |
| AGTTAATA | 0.264 |
| AGGGTGAT | -0.0385 |
| CGAATCGC | -0.0763 |
| GCACCCGC | -0.139 |

| Sequence | PBM E-score |
| --- | --- |
| CTCACCGC | -0.165 |
| ACTGCACT | 0.0255 |
| CGCAAAAC | 0.146 |
| ATAGGTAA | 0.0418 |
| ACGCCTTC | -0.134 |
| AGACCTCT | -0.201 |
| CATGACCG | -0.199 |
| CTTGAGAC | -0.104 |
| CACGAATG | 0.102 |
| ATGCCCAT | -0.11 |
| ACTGCACA | -0.00455 |
| CATCGTCG | -0.156 |
| ATCCCCGG | -0.223 |
| CTCTTAAG | -0.104 |
| AGTCGCCA | -0.253 |
| CTTTGAGC | -0.209 |
| CGAAGACC | 0.00252 |
| TCCTTCCA | -0.111 |
| CATTATTC | 0.185 |
| ATCCTGCG | -0.201 |
| ACACAAGG | -0.0193 |
| ATAGGTCG | -0.00638 |
| GGGAAGAA | -0.0383 |
| CTTCTGAC | -0.155 |
| CAAGCGCA | 0.235 |

| Sequence | PBM E-score |
| --- | --- |
| CCATAGGC | -0.207 |
| ACGAGCTG | 0.0939 |
| TGCTCCAA | 0.0755 |
| ACATGAAC | 0.0169 |
| ATCACAGG | -0.151 |
| CCCAGTCG | -0.112 |
| ATGCTACG | 0.0849 |
| AAACGTAC | 0.0703 |
| GTATTCAC | 0.113 |
| TCTCGTAA | 0.228 |
| CCGTGCTA | -0.142 |
| ACTCAGCC | -0.139 |
| AATTTCTG | 0.089 |
| GAGCATAA | 0.178 |
| AAATTTAA | 0.217 |
| GTTCTGCA | 0.0206 |
| ATACGTAG | 0.0583 |
| ATGACAAT | 0.196 |
| CTCATAAC | 0.0114 |
| TCGCTACA | -0.242 |
| ATGAATGC | 0.0737 |
| ACCGGCGT | -0.0117 |
| TAAAGACA | 0.109 |
| CCACCAAC | 0.0331 |
| CAGGCTGA | -0.233 |

Four entries drawn at random from those above, as already listed:

| Sequence | PBM E-score |
| --- | --- |
| CAACCTAA | 0.0685 |
| AAATTTAA | 0.217 |
| AAGTCGCG | 0.146 |
| CACGAATG | 0.102 |

The listing continues.

| Sequence | PBM E-score |
| --- | --- |
| CGCCTCTC | -0.34 |
| GAATGCTC | -0.0816 |
| ACTTTTCT | 0.099 |
| ATGCTGCA | -0.0493 |
| GCCCCCCA | -0.427 |
| GATTGGCC | -0.145 |
| AAACAGTT | -0.0243 |
| CACACAAC | -0.00829 |
| ACTGCCGA | 0.0404 |
| GCTACAGC | 0.0268 |
| AAACTTGA | 0.0809 |
| AGTAGCAT | -0.0143 |
| ACGCACTC | -0.0814 |
| AGTTGCAA | 0.0821 |
| AAGACTCA | -0.162 |
| GGCGTAAC | -0.0835 |
| AAATACTT | 0.0794 |
| ATGATACA | 0.233 |
| ACATACGC | 0.0285 |
| GGTAGATA | 0.114 |
| CGGTTATC | 0.0497 |
| ATAAACAG | 0.18 |
| TGTAAGAA | 0.167 |
| CAATCACG | 0.0762 |
| TAACTAGA | 0.225 |

A second format for part of the listing above.
Sequence | PBM E-score
CCACCAAC | 0.0331
CAGGCTGA | -0.233
CGCCTCTC | -0.34
GAATGCTC | -0.0816
ACTTTTCT | 0.099

The list goes on:

| Sequence | PBM E-score |
| --- | --- |
| AATAATGG | 0.329 |
| AGAGACCA | -0.0356 |
| AACGACTA | 0.0584 |
| CTTAGGTA | 0.118 |
| TCCGGCAA | -0.0144 |
| CGAGGTAA | -0.0145 |
| ACTGAATA | 0.103 |
| AACCCGCT | -0.0991 |
| AAACCATG | 0.0294 |
| TGACGTCA | 0.331 |
| GTCCTAGA | -0.228 |
| GAACACGC | 0.0758 |
| CTGCTGAC | 0.136 |
| CTAATCTA | 0.00845 |
| GAACTACC | 0.0671 |
| AGAACAGC | 0.0757 |
| ATCATAGC | 0.0624 |
| AAGTGCCC | -0.072 |
| CTATGGGA | -0.103 |
| GACGATCC | -0.0215 |
| ACGCGGCG | -0.0321 |
| ACCTTTCA | 0.0516 |
| GCCCAACC | 0.0559 |
| CAGACACG | -0.12 |
| ATATTGTC | 0.226 |

| Sequence | PBM E-score |
| --- | --- |
| CTCCAATC | 0.119 |
| AAGAGCCT | -0.0508 |
| ATGCTAAG | 0.0349 |
| AACGTGTG | 0.0407 |
| GATACAGC | 0.0439 |
| CTGATTGC | 0.0633 |
| GTCAGATA | 0.0654 |
| ACGCTCAC | -0.0296 |
| AAATCGGG | 0.0709 |
| ATATCTAA | 0.115 |
| CTCGGAGA | -0.0278 |
| TCTTAAGA | 0.0284 |
| ACCCGCCT | -0.291 |
| ATTAGCGC | 0.11 |
| AACAGTTG | -0.0544 |
| AAGGACTC | -0.0811 |
| AAACGTAG | 0.102 |
| ACGGCATA | 0.0715 |
| CTCCAGTC | -0.175 |
| AGTGAGGG | -0.219 |
| CGGAAACG | 0.0552 |
| ACCTTTTG | -0.00164 |

From the supplement of paper PMC3334620
